We go through one compound from patent publication US20170166561A1, “QUINUCLIDINE COMPOUNDS FOR MODULATING ALPHA7-NICOTINIC ACETYLCHOLINE RECEPTOR ACTIVITY” (Alpharmagen, LLC, priority 2014, published 2017).

The structures given here were assigned with low confidence; some may be wrong.

What all share (assay type): in vitro ADME
Data set [1] in a line: Metabolic stability assay in rat liver microsomes (RLM; Protocols 1 and 2). The conditions noted are these: Protocol 1, 1 μM, NADPH, 37° C., tested form: HCl.
The nature of data set [2]: Human plasma stability (Protocols 1 and 2). The conditions noted are these: Protocol 2, plasma pH 7.4 to 8.0, 5 μM, 37° C., tested form: HCl.
Data set [3] in a line: Metabolic stability assay in human liver microsomes (HLM; Protocols 1 and 2). The following applies: Protocol 1, 1 μM, NADPH, 37° C., tested form: HCl. (Liver microsomes are vesicles of endoplasmic reticulum, rich in cytochrome P450 enzymes.)

In data set [1], `COc1cc(F)cc2[nH]cc(C(=O)OCC34CCN(CC3)CC4)c12` had an RLM of 26.02 L/h/kg. Also, in data set [2], the “% Remaining @ 2 h” value came to 48.22%. Besides, the HLM in data set [3] amounted to 0.48 L/h/kg.
